# Source: PubChem BioAssay AID504808 (Drosophila RNAi Screening Center, 2011)
# Assay: 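Genes whose loss lifts activity of an E2F-responsive reporter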 (primary screen)
# Cell system: Drosophila S2 cells
# Knock-down reagent: long dsRNA against Drosophila genes
# Measured: 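Dual luciferase plate measurements; E2F-specific signal taken as firefly over Renilla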
# Scale: E2F firefly: higher = more E2F reporter activity; Renilla normaliser: higher = more normaliser reporter signal
# Hit rule: 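a knock-down counted as active when the firefly/Renilla E2F signal rose above 50%, a threshold chosen arbitrarily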
# In all, the deposit lists about 21,000 reagents; below is an unselected part of those that have a named target and a result. In the full data, 18 (0.084%) are marked active. 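Raw counts without plate normalisation, one of two replicates; the ratio scores behind the calls were not deposited.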 The numbers tell different reagents against one gene apart. Names joined by + are all predicted targets of the reagent. The record does not give: the amount of reagent, the time to read-out.
target gene,dsRNA no.,"E2F firefly, rep 1","Renilla normaliser, rep 1",activity call
CG7573,1,1.26e5,7305,inactive
Tsp86D,1,1.54e5,7717,inactive
Amun,1,1.19e5,6387,inactive
l(3)05822,1,68043,2829,inactive
CG6503,1,1.07e5,5502,inactive
CG14442,1,7034,864,inactive
kmg,1,1.08e5,4447,inactive
spz6,1,73851,3328,inactive
aru,1,1.68e5,5426,inactive
CG10257,1,1.07e5,4676,inactive
CG7083,1,1.04e5,3610,inactive
Gdh,1,66406,3457,inactive
CG32846,1,1.41e5,4294,inactive
CG30281,1,83839,3167,inactive
mRpS6,1,91122,3108,inactive
CG13186,1,84872,3949,inactive
Wdr92,1,1.65e5,8584,inactive
CG13023,1,1.21e5,3966,inactive
CG13023,2,1.53e5,8003,inactive
Sirup,1,1.59e5,5608,inactive
Irk1,1,1.15e5,6466,inactive
CG8924,1,6878,664,inactive
c12.2,1,1.09e5,6422,inactive
Cpr49Af,1,94637,4063,inactive
Tpr2,1,81467,3446,inactive
Pph13,1,83226,3403,inactive
CG17754,1,7059,784,inactive
rn,1,75862,4858,inactive
rn,2,1.46e5,6710,inactive
rn,3,1.27e5,7754,inactive
rn,4,1.29e5,6139,inactive
brm,1,1.40e5,9741,inactive
sick,1,84525,3453,inactive
sick,2,94286,3704,inactive
sick,3,94830,3881,inactive
sick,4,1.02e5,4528,inactive
sick,5,95963,3675,inactive
Ugt307A1,1,1.59e5,5519,inactive
Hrb98DE,1,1738,920,inactive
CG16904,1,76521,3521,inactive
CG11672,1,1.20e5,5620,inactive
CG9667,1,96976,6835,inactive
CG42586 + CG31775,1,1.22e5,5729,inactive
ihog,1,96239,4184,inactive
CG2772,1,1.49e5,5439,inactive
nrv3,1,58886,3505,inactive
meru,1,1.34e5,4811,inactive
meru,2,67775,9707,inactive
meru,3,1.56e5,8145,inactive
CG34033,1,1.48e5,6251,inactive
enc,1,1.02e5,4314,inactive
tej,1,99934,4347,inactive
Ank2,1,1.41e5,4643,inactive
Ank2,2,1.00e5,3883,inactive
Ank2,3,97303,4125,inactive
Ank2,4,1.16e5,4252,inactive
Cyp6v1,1,1.32e5,7426,inactive
CG5342,1,1.53e5,6619,inactive
CG13157,1,1.05e5,4900,inactive
CG8860,1,1.04e5,4757,inactive
alpha-Est4,1,1.37e5,6776,inactive
Ir41a,1,1.30e5,6274,inactive
Ir41a,2,1.12e5,4330,inactive
hebe,1,1.50e5,6474,inactive
hebe,2,73164,3847,inactive
CG7974,1,68323,3607,inactive
Nrx-1,1,67495,2690,inactive
aurA,1,1.40e5,5266,inactive
Nha1,1,95869,3748,inactive
psq,1,2020,220,inactive
CG11714,1,67092,3477,inactive
Abcd1,1,1975,1128,inactive
Achl,1,98951,4088,inactive
ctp,1,9055,828,inactive
dgt2,1,1.02e5,4175,inactive
ninaB,1,1.23e5,6563,inactive
cup,1,86204,3258,inactive
Reph,1,75033,3628,inactive
Phae1,1,1.06e5,3978,inactive
CG10814,1,2725,205,inactive
CG7006,1,71299,4191,inactive
Naam,1,1.22e5,6753,inactive
CG17107,1,1.52e5,5277,inactive
Fntb,1,74888,4218,inactive
